# Library screen at single concentrations

The chains behind the UniProt entries cited, without tags or fusion partners. Residues count along the entry.
UniProt P9WNZ1, whole entry: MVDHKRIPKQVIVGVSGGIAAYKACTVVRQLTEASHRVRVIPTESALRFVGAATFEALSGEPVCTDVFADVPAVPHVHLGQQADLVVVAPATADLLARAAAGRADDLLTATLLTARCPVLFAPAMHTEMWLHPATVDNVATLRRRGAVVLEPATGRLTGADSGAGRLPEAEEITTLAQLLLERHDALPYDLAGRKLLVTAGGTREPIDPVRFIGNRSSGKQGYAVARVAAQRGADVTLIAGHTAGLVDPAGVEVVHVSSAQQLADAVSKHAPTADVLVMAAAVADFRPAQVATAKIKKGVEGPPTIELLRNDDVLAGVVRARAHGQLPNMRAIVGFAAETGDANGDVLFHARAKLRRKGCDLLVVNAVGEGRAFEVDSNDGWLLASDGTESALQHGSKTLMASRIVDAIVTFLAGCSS
UniProt I6X8D2, whole entry: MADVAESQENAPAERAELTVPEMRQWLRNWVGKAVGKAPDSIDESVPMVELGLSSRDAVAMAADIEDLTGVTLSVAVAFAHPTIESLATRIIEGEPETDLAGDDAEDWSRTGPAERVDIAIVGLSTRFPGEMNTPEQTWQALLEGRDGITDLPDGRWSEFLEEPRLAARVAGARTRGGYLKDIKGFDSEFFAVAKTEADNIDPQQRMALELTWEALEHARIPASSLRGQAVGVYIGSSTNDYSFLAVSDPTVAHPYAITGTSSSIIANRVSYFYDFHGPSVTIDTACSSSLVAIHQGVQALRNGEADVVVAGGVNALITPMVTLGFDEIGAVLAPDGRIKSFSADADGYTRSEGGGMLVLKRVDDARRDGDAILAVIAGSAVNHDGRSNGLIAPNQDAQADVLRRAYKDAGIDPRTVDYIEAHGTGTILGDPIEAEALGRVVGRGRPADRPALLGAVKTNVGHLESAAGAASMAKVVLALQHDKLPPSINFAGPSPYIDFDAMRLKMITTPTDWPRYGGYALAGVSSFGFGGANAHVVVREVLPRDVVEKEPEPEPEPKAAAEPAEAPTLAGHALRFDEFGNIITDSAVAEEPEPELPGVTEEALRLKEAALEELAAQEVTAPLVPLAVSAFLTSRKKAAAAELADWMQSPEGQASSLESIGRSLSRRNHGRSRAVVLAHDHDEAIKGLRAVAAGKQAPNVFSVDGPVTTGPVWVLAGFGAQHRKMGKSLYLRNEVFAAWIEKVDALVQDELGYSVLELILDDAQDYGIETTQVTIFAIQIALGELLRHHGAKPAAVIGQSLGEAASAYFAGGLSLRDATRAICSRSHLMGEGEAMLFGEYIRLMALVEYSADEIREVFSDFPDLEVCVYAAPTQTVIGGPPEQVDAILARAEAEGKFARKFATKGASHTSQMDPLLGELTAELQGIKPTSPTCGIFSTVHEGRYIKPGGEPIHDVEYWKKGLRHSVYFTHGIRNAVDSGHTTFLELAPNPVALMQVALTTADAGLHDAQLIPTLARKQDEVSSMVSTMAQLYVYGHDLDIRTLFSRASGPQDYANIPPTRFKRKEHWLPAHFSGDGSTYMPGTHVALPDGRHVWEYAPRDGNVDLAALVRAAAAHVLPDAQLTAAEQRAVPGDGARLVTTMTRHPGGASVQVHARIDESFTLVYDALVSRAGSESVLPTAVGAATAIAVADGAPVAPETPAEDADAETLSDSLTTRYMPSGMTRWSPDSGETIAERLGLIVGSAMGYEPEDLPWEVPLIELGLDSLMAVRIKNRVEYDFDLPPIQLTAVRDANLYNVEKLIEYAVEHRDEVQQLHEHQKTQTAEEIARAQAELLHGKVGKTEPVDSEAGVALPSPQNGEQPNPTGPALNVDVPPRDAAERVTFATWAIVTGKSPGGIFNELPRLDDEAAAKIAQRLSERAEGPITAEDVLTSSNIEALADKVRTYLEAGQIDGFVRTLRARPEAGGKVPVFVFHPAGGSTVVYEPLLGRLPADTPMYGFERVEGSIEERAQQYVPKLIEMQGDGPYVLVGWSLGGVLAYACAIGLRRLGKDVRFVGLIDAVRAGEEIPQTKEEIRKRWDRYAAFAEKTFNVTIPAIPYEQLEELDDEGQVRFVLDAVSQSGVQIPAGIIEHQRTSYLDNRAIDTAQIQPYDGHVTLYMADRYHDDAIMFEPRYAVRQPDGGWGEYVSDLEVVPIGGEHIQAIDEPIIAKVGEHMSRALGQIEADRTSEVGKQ
UniProt P9WPC5, whole entry: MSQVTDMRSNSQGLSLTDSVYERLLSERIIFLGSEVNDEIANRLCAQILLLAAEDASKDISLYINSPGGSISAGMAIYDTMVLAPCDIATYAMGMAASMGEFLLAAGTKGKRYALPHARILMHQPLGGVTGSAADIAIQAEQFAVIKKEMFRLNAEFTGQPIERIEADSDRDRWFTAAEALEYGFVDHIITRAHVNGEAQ
UniProt P9WPC3, whole entry partner: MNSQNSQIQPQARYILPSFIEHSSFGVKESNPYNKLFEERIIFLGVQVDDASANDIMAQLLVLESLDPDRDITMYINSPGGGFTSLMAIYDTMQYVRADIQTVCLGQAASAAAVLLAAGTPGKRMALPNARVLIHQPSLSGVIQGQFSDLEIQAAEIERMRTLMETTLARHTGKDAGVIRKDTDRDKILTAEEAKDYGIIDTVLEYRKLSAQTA
UniProt A4I591, 1-473: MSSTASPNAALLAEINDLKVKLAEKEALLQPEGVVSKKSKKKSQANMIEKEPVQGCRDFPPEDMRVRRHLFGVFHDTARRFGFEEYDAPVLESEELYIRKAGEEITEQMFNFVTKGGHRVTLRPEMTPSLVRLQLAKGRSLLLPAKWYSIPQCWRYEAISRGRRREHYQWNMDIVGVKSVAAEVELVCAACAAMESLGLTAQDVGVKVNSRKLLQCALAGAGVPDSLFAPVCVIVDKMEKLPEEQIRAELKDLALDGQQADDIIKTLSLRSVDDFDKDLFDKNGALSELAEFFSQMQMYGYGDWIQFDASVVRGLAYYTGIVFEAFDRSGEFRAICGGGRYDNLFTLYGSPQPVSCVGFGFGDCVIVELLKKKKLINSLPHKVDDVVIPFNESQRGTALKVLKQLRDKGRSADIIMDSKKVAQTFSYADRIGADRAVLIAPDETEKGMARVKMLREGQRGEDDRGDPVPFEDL
UniProt P9WFT3, whole entry: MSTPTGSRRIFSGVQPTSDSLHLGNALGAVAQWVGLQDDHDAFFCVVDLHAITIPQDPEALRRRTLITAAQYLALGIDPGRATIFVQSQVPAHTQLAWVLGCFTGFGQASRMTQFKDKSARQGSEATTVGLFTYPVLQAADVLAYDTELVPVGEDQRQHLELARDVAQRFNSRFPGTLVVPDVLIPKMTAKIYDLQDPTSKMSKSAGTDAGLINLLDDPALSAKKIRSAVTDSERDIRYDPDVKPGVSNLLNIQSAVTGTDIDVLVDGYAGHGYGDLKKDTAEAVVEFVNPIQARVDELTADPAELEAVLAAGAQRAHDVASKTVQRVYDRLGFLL

From ChEMBL document CHEMBL3988442, “University of Dundee, Small-Polar-MMV Screening Library” (2021).

CoaBC: 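Enzyme assay of CoaBC with a phosphate dye (Biomol Green) read at 650 nm. Target: Coenzyme A biosynthesis protein CoaBC, Mycobacterium tuberculosis (UniProt P9WNZ1). Concentration: 30 µM. Higher reads as stronger inhibition, judged from the few compounds that gave an IC50. Most strong results did not repeat in a second test. Of about 67,000 compounds tested this way, about 40 (0.06%) reached 50% or more in at least one test.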
Pks13 thioesterase: 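Polyketide synthase Pks13, Mycobacterium tuberculosis (UniProt I6X8D2). Enzyme assay of the thioesterase domain of polyketide synthase 13; the read-out is not stated. Tested at 30 µM. Higher reads as stronger inhibition (inferred from which compounds were picked for retests). Size under these conditions: about 67,000 compounds, about 300 of them at 50% or above in at least one test.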
ClpP1P2: 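ClpP1P2, Mycobacterium tuberculosis (UniProt P9WPC5 and UniProt P9WPC3). Protease assay of ClpP1P2, read by the AMC dye that it sets free. Tested at 50 µM. Direction is inferred from only a few compounds that gave an IC50; most scored high, so higher reads as stronger inhibition. Most other retested compounds had strongly negative values. About 69,000 compounds were tested under these conditions; 0.015% (about 10) showed 50% or more at least once.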
Toxoplasma: 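Assay of Toxoplasma gondii numbers, read through their beta-galactosidase reporter with a colour substrate. Concentration: 10 µM. Higher reads as fewer parasites (inferred from which compounds were picked for retests). Size under these conditions: about 67,000 compounds, about 260 of them at 50% or above in at least one test.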
LiHisRS: 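Enzyme assay of histidyl-tRNA synthetase; the read-out is not stated. Target: Histidine-tRNA ligase, Leishmania infantum (UniProt A4I591). Compounds at 30 µM. The record gives no direction; compounds that gave an IC50 in retests scored well above the rest, so higher reads as stronger inhibition. The assay is labelled LdHisRS but filed under L. infantum. About 69,000 compounds were tested under these conditions; 0.6% (about 410) showed 50% or more at least once.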
MtTrpRS: 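Tryptophan-tRNA ligase, Mycobacterium tuberculosis (UniProt P9WFT3). Enzyme assay of tryptophanyl-tRNA synthetase; the read-out is not stated. Concentration: 10 µM. Direction is not recorded; retested compounds ran higher, which suggests that high means inhibition. Of about 65,000 compounds tested this way, about 64 (0.098%) reached 50% or more in at least one test.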

Each number is a percent effect as filed. The controls that fix the scale are not given in the record; negative values are as filed. Compounds were drawn at random from those tested, without regard to their results. Two or more numbers in one place are separate tests of the same structure; such repeats can differ widely. A dash means the value is not listed here; it may have been measured.

| # | SMILES | CoaBC | Pks13 thioesterase | ClpP1P2 | Toxoplasma | LiHisRS | MtTrpRS |
|---|---|---|---|---|---|---|---|
| 1 | `CC(c1nc(C2CC2)no1)N1CCc2c(ncn2C2CC2)C1` (centres undefined) | -30.46 | -19.47 | -1.265 | 15.61 | 11.67 | -0.6415 |
| 2 | `CCS(=O)(=O)c1ncc(CN(C)Cc2ccccc2OC)n1CCOC` | -0.1206 | 10.02 | -5.384 | 17.84 | 5.6 | 1.377 |
| 3 | `O=C(c1ccc2cccnc2n1)N(Cc1ccsc1)CC1CCCO1` (centres undefined) | 0.7317 | 9.56 | -11.3 | 15.5 | 19.2 | 0.4515 |
| 4 | `O=C(O)C(F)(F)F.O=C(c1ccccc1)N1CCCC2(CCN2Cc2cccc(F)c2)C1` (centres undefined) | - | - | - | -22.92 | - | - |
| 5 | `COCCN(C)CC1CCCN1S(=O)(=O)Cc1ccccc1F` (centres undefined) | -5.186 | 14.3 | 10.42 | -13.63 | 6.349 | 0.1874 |
| 6 | `COc1ccc(F)c(-c2ncccc2C(=O)N2C[C@H]3CC[C@@H]2C3)c1` | 10.45 | 1.352 | 4.576 | - | 21.43 | -0.5415 |
| 7 | `CSCCC(C)(O)CNS(=O)(=O)Cc1cccc(C)c1` (centres undefined) | 7.506 | -5.006 | -12.65 | 2.206 | 14.63 | 1.633 |
| 8 | `O=S(=O)(N1CCCC1)N1CC(c2ccnc(Nc3ccccn3)n2)C1` | 0.4854 | 2.277 | -20.54 | -8.624 | 5.714 | 17.27 |
| 9 | `CN(C)Cc1cn2c(n1)CN(CC1CCCC1)CC2.O=C(O)C(F)(F)F.O=C(O)C(F)(F)F` | - | - | - | 23.4 | - | - |
| 10 | `CC(C)c1cccc(NC(=O)Cn2c(=O)n(C)c(=O)c3sccc32)c1` | -8.947 | -6.807 | 18.43 | 23.71 | 9.655 | 7.519 |
| 11 | `Cc1cnn(CC2CCCCN2C(=O)Cc2c(C)nn(C)c2C)c1` (centres undefined) | -3.435 | -13.24 | -1.524 | 0.753 | 7.826 | -6.134 |
| 12 | `Cc1ccc(-c2nn(C)c(C(=O)O)c2Br)cc1` | 8.333 | -52.3 | 2.912 | 4.245 | 13.16 | -16.74 |
| 13 | `O=C(NCC(O)Cc1ccccc1)c1ccc2[nH]c(=O)[nH]c2c1` (centres undefined) | 1.942 | 25.43 | 0.04723 | -2.122 | 17.65 | 1.968 |
| 14 | `CC(C)N(C)[C@@H]1CCN(C(=O)[C@H]2CCCO2)[C@H]1Cc1cnn(C)c1` | -0.2105 | 2.108 | 1.366 | 0.1129 | 6.195 | 0.3984 |
| 15 | `COCCCN1CC2(CCN(C(=O)Cc3csc(C)n3)CC2)CC1=O` | -4.069 | -36.35 | 2.851 | -5.612 | 8.333 | -0.9338 |
| 16 | `COCC(=O)N1CCCC(c2nc(N)ncc2-c2cccc(F)c2)C1` (centres undefined) | 3.398 | -5.475 | -13.61 | 2.554 | 8.571 | -4.299 |
| 17 | `O=C(CCC1CCCCC1)NCc1nnc2ccccn12` | - | -42.58 | 7.092 | 0.5394 | 26.76 | 4.339 |
| 18 | `COCCN1C[C@H]2CC[C@@H]1CN(Cc1ccc3ccccc3n1)C2` | -25.81 | -35.7 | -4.596 | - | 37.5 | -0.5623 |
| 19 | `CCN(CC)S(=O)(=O)NC(C)C(=O)N(C)C` (centres undefined) | 0.319 | -4.817 | -6.041 | 5.53 | -5 | 0.2913 |
| 20 | `CC(C)N1C(=O)CN(CCCO)CC1(C)C` | 2.071 | -21.51 | -10.91 | -5.547 | 6.25 | 0 |
| 21 | `c1ccc(N(CCn2cncn2)CC2CC2)cc1` | 4.439 | 0.6923 | 0.6725 | 4.503 | 7.965 | -0.7227 |
| 22 | `[H][C@@]12CNC[C@]1([H])N(C(=O)c1ccccc1)CCO2` | - | - | - | 18.83 | - | - |
| 23 | `Cc1ccc(O)c(C(=O)NCCS(=O)(=O)Cc2ccccc2)c1` | 7.968 | -3.6 | 6.822 | -7.343 | 30.14 | -3.916 |
| 24 | `Cc1cc(C2CCCN2C(=O)COc2ccc(CC#N)cc2)on1` (centres undefined) | 7.6 | - | -1.324 | -8.166 | 7.692 | -4.562 |
| 25 | `O=C(c1ccc(-n2cccn2)c(F)c1)N1CCCN2CCCC2C1` (centres undefined) | -15.56 | 0.4141 | -2.36 | -0.4545 | 6.306 | -2.469 |
| 26 | `CSCCCN1CCC(c2nnc(Cn3ccnc3)n2C2CC2)CC1` | 2.784 | 5.14 | 7.486 | 1.849 | 11.67 | -5.008 |
| 27 | `O=C(O)c1c(-c2cccnc2)ncc2c1CCN(Cc1ccccn1)C2` | -4.202 | 3.184 | 6.591 | - | 14.55 | -4.708 |
| 28 | `c1c[nH]c(-c2cn(CCSc3cnn[nH]3)nn2)n1` | 14.36 | -108.5 | -10.5 | -26.65 | 33.33 | -3.994 |
| 29 | `O=C(O)C(F)(F)F.O=C(O)C(F)(F)F.c1cncc(COCc2nnc3n2CCN(CC2CC2)C3)c1` | - | - | - | 10.08 | - | - |
| 30 | `NCCNS(=O)(=O)Cc1ccc(Br)cc1` | 1.463 | -11.27 | -28.84 | - | 24 | 1.354 |
| 31 | `COc1ccc(CCn2cnc(C#N)n2)cc1` | 2.166 | -20.95 | -5.402 | 1.147 | 1.036 | -0.7157 |
| 32 | `COc1ccc(CNc2cc3[nH]c(O)nc3cc2C)cc1` | -2.237 | -10.95 | 10.47 | 18.87 | 17.24 | 1.55 |
| 33 | `CCS(=O)(=O)CCNc1nc(C2CCCC2)nc2c1cnn2C` | 4.727 | - | -12.05 | 13.55 | 14.52 | 1.481 |
| 34 | `Cc1noc(C)c1CN1CCn2cc(CNc3ccccn3)nc2C1` | 21.21 and 11.86 | 8.876 | 2.616 | - | 21.15 | - |
| 35 | `O=C(c1cc(-n2cnnn2)ccc1Cl)N1CCOCC1` | 1.139 | 1.093 | -21.19 | -3.168 | 7.5 | -0.4068 |
| 36 | `CCn1c(C)nnc1CN(C)C1CCN(CCc2ccncc2)C1` (centres undefined) | 3.59 | -17.6 | 11.51 | -1.24 | 21.33 | -2.58 |
| 37 | `Cn1ccnc1C(=O)N1CCC2(CCN2CC2CC2)C1` (centres undefined) | 17.08 | -4.415 | 8.763 | - | 24.79 | 28.98 |
| 38 | `Cc1noc(C2CCN(C(=O)c3ccc(C(F)(F)F)nc3)CC2)n1` | 3.581 | -17.59 | -28.27 | -2.726 | 20.18 | -6.136 |
| 39 | `Cc1noc(C)c1NS(=O)(=O)c1cc(Cl)c(Cl)c(C(=O)O)c1` | 12.35 | -6.048 | -3.313 | -5.526 | 10.96 | 2.197 |
| 40 | `[H][C@]12CC[C@]([H])(CN(C(=O)N(C)C)C1)N(C(=O)Cc1c(C)nc(C)[nH]c1=O)C2` | - | - | - | 1.967 | - | - |

Some entries from above, unchanged:

| SMILES | CoaBC | Pks13 thioesterase | ClpP1P2 | Toxoplasma | LiHisRS | MtTrpRS |
|---|---|---|---|---|---|---|
| `O=C(NCC(O)Cc1ccccc1)c1ccc2[nH]c(=O)[nH]c2c1` (centres undefined) | 1.942 | 25.43 | 0.04723 | -2.122 | 17.65 | 1.968 |
| `[H][C@@]12CNC[C@]1([H])N(C(=O)c1ccccc1)CCO2` | - | - | - | 18.83 | - | - |
| `COCCCN1CC2(CCN(C(=O)Cc3csc(C)n3)CC2)CC1=O` | -4.069 | -36.35 | 2.851 | -5.612 | 8.333 | -0.9338 |